# In PubChem BioAssay AID1347422 (Sanford-Burnham Center for Chemical Genomics, 2020):
# Chains of the proteins cited; added tags and fusions are not shown. Lines headed by an entry give the natural chain unless they say otherwise; changes in a name come on top.
# UniProt O00391: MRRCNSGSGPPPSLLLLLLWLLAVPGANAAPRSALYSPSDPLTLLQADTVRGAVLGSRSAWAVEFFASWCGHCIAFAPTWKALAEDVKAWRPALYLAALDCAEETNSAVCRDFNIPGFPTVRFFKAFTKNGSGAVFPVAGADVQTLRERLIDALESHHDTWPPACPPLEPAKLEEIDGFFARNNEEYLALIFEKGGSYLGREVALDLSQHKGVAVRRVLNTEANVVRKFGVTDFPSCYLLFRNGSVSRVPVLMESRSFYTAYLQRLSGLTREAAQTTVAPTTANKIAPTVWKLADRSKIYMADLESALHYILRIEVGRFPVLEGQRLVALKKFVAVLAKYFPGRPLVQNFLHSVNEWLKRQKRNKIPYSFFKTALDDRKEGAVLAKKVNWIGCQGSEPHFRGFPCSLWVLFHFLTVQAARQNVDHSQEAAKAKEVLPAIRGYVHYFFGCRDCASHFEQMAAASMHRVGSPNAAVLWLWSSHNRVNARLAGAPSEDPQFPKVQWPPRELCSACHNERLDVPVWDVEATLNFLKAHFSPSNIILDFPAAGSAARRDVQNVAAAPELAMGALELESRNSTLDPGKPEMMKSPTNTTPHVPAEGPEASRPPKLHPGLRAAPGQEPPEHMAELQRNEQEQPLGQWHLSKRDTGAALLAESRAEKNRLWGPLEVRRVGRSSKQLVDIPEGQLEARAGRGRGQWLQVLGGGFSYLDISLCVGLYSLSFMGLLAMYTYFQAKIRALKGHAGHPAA
# In all, about 1,000 compounds were measured (“thermal shift dTm”: median about 0.19, highest 2% from about 1.7 on). The list shows a part of the results. Calls of active or inactive are those of the source.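 How the source made its calls: active means mean rise in melting temperature of at least 1 degC over same-plate control wells; inactive means below that, where a call was filed.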
# Target: Sulfhydryl oxidase 1 (Homo sapiens) (UniProt O00391)
# Test: ligand-induced melting shift of human QSOX1 – biophysical, protein thermal shift, single concentration, QSOX1 inhibitor project, confirmation (AID 1347422);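 further: dTm is compound Tm minus mean Tm of DMSO-only wells on that plate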
# Conditions: recombinant hQSOX1 thermal shift, Sypro Orange, at 25 µM, stronger effect = higher value
row,Structure (SMILES),thermal shift dTm
1,CN(C)c1ccc(-c2cc(C(N)=O)ccn2)cc1,0.93 °C
2,CCOc1ccc(N/C(N)=N/c2nc(-c3cccs3)cc(C(F)(F)F)n2)cc1,inactive: -0.16 °C
3,Oc1ccc(Br)cc1-c1nc2ccc3ccccc3c2c2c1CCCC2,0.15 °C
4,CC(C)C(=O)Nc1cccc(NC(=O)Nc2ccccc2)c1,active: 1.68 °C
5,CCOc1ccc(NC(=S)Nc2ccc(C(N)=O)cc2)cc1,inactive: -0.03 °C
6,COC(=O)c1ccc(Nc2nnc(-c3ccc(O)cc3)c3ccccc23)cc1,0.3 °C
7,O=C(Nc1ccc(-n2cc(Br)cn2)cc1)c1cccnc1,0.23 °C
8,CCC(=O)Nc1ccc(NC(=O)CCc2ccccc2Cl)cc1,0.41 °C
9,COc1ccc(NC(=O)CSCc2ccccc2C)cc1Cl,0.02 °C
10,Cc1ccc(-c2nn(-c3cccc(F)c3)cc2CN2CCN(CCO)CC2)o1,0.09 °C
11,O=C(Nc1nnc(C2CC2)s1)c1ccc(NC(=O)c2ccco2)cc1,0.55 °C
12,O=C(/C=C/c1ccc(F)cc1)NCCc1nc2ccccc2[nH]1,0.44 °C
13,CC(C(=O)Nc1nc2ccccc2s1)N1CCN(c2ccccc2F)CC1 (stereo unspecified),0.11 °C
14,COc1ccc(-c2nnc(NC(=O)C(C)Oc3cccc(Cl)c3)s2)cc1 (stereo unspecified),0.11 °C
15,COc1ccc(NC(=O)CSc2c(-c3ccccc3)c3cc(Cl)ccc3[nH]c2=O)cc1,0.63 °C
16,COc1ccc(C(NC(=O)Cc2ccc3c(c2)CCCC3)c2ccccc2)cc1 (stereo unspecified),0.21 °C
17,O=C(Nc1ccc2c(c1)OCCO2)c1cc(Br)cs1,0.04 °C
18,Cc1c(C(=O)N2CCC[C@H]2CO)sc2ncnc(NCCc3c[nH]c4ccccc34)c12,inactive: -0.04 °C
19,O=C(Nc1ccccc1C(=O)O)c1cccc(S(=O)(=O)Nc2ccccc2)c1,active: 1.23 °C
20,O=C(Nc1ccccc1Cl)NC12CC3CC(CC(C3)C1)C2,inactive: -0.13 °C
21,Cc1ccc2oc(C(=O)Nc3ccc(S(=O)(=O)Nc4nccs4)cc3)c(C)c2c1,0.75 °C
22,O=C(c1cccc(Cl)c1)C1CCCN(S(=O)(=O)c2cccs2)C1 (stereo unspecified),0.14 °C

# Look-ups from the results shown:
# thermal shift dTm with O=C(Nc1ccccc1Cl)NC12CC3CC(CC(C3)C1)C2 is entered as inactive: -0.13 °C
# thermal shift dTm with O=C(c1cccc(Cl)c1)C1CCCN(S(=O)(=O)c2cccs2)C1 (stereo unspecified) is entered as 0.14 °C

# Next part

row,Structure (SMILES),thermal shift dTm
1,CC(C)(C)c1ccc(-c2noc(CNC(=O)C3CCCCC3)n2)cc1,0.11 °C
2,Cc1ccc(NS(=O)(=O)c2cccc(C(=O)Nc3ccccc3C(=O)O)c2)cc1,active: 1.46 °C
3,CC(NC(=O)N1c2ccccc2Sc2ccccc21)c1ccccc1 (stereo unspecified),inactive: -0.03 °C
4,O=C(Nc1cccnc1)c1ccc(-c2cccc(-c3ccn[nH]3)c2)o1,0.7 °C
5,CCOc1ccc(CN2CCNC(=O)C2CC(=O)NCc2cc(OC)cc(OC)c2)cc1 (stereo unspecified),0.18 °C
6,Cc1cccc(Nc2nc3ccc(C)cc3n3cnnc23)c1,0.19 °C
7,O=C(Nc1ccc(F)cc1)N1CCC(n2cc(Cc3ccccc3)nn2)CC1,0.28 °C
8,Cc1cccc(NC(=O)Nc2nc(C)cs2)c1,inactive: -0.13 °C
9,Cc1cc(C)cc(-n2ncc3c2CCCC3NC(=O)CN2CCCCC2=O)c1 (stereo unspecified),0.05 °C
10,CCc1nnc(NC(=O)c2nnn(-c3ccc(C)cc3)c2N)s1,0.7 °C
11,O=C(COC(=O)c1c2c(nc3ccccc13)CCCC2)Nc1cccc(C(F)(F)F)c1,0.02 °C
12,CCc1ccc(NC(=O)c2ccc(N(C)S(C)(=O)=O)cc2)cc1,0.18 °C
13,CC(C)CCOc1ccc(-c2cc(C(=O)O)c3ccccc3n2)cc1,0.33 °C
14,O=C(NC1CCCCC1)c1cccc(COc2ccc3ccccc3c2)c1,0.63 °C
15,O=C(NCc1ccc(Cl)c(Cl)c1)c1ccc(Br)cc1,inactive: -0.13 °C
16,N#Cc1cccc(NC(=O)c2cc3ccccc3o2)c1,0.32 °C
17,Cc1cn2cc(-c3cccc(Cl)c3)nc2s1,0.25 °C
18,O=C(Nc1ccccc1-c1nc2ccccc2[nH]1)NC1CCCCC1,0.67 °C
19,O=C(CC(c1ccccc1)c1cc(Br)ccc1O)NC1CCCCC1 (stereo unspecified),0.11 °C
20,CCOc1ccc(C2c3[nH]c4ccccc4c3CCN2C(=O)Cn2cncn2)cc1 (stereo unspecified),0.18 °C
21,O=c1cc(O)c2sc3nc(-c4ccco4)cc(C(F)(F)F)c3c2[nH]1,0.53 °C
22,Cc1c(C(=O)Nc2sc(C(C)C)cc2C(N)=O)oc2ccccc12,0.13 °C

# Quoted at random: 2 compounds from above, in no set order.
row,Structure (SMILES),thermal shift dTm
9,Cc1cc(C)cc(-n2ncc3c2CCCC3NC(=O)CN2CCCCC2=O)c1 (stereo unspecified),0.05 °C
3,CC(NC(=O)N1c2ccccc2Sc2ccccc21)c1ccccc1 (stereo unspecified),inactive: -0.03 °C

# (next part)

row,Structure (SMILES),thermal shift dTm
1,Cc1[nH]n2c(=O)cc(-c3ccccc3)nc2c1-c1ccc(F)cc1,active: 1.5 °C
2,O=C(Nc1nccs1)c1ccccc1OCc1ccccc1,0.37 °C
3,CC(C)C(=O)Nc1cccc(C(=O)Nc2cccc(O)c2)c1,0.57 °C
4,S=C(Nc1ccc2nc(-c3ccco3)c(-c3ccco3)nc2c1)N1CCCC1,inactive: -0.45 °C
5,COc1ccc(-c2cnn3c(N)c(-c4ccccc4)cnc23)cc1,0.25 °C
6,CCCOc1ccc(NC(=O)CSc2nnc(N)s2)cc1,inactive: -0.15 °C
7,O=C(Nc1ccc(-c2noc(COc3ccccc3)n2)cc1)c1ccc(F)cc1,inactive: -0.09 °C
8,COC(=O)c1ccc(COC(=O)c2cc(=O)[nH]c3ccccc23)cc1,0.63 °C
9,COc1ccc(NC(=O)Nc2ccc(C(C)=O)cc2)c(C)c1,active: 2.14 °C
10,CCCc1cc(=O)[nH]c(SCC(=O)Nc2nc(-c3ccccc3)cs2)n1,active: 1.07 °C
11,CC(=O)c1cccc(NC(=O)Nc2cc(C(F)(F)F)ccc2F)c1,inactive: -0.7 °C
12,CN(C)c1nc(N/N=C/c2ccc(O)cc2)nc(Nc2ccc(F)cc2)n1,inactive: -0.09 °C
13,CCC(C)NC(=O)c1ccc(NC(=O)Nc2ccccc2)cc1 (stereo unspecified),active: 1.25 °C
14,Cc1cc(NC(=O)/C=C/c2ccco2)ccc1Br,0.54 °C
15,Cc1nc2c(-c3ccccc3)c[nH]n2c(=O)c1Cl,0.18 °C
16,CCCn1c(=O)[nH]c(=O)c2c(-c3cccc4ccccc34)ccnc21,0.25 °C
17,Cc1nc(SCc2nc(-c3ccccc3)no2)[nH]c(=O)c1Cc1ccccc1,0.11 °C
18,COc1ccc(CCCC(=O)Nc2ccc(F)cc2)cc1,0.15 °C
19,CCc1cc(-c2n[nH]c(C)c2Oc2ccc(Cl)cc2)c(O)cc1OC,0.11 °C
20,CCOC(=O)c1c(NC(=O)N(CCO)Cc2ccccc2)sc2c1CCC2,0.06 °C
21,COc1ccc(NC(=O)Nc2ccc(F)c(F)c2)c(OC)c1,0.47 °C
22,Clc1ccc(Nc2nc(NCc3ccco3)c3ccccc3n2)cc1,0.01 °C

row,Structure (SMILES),thermal shift dTm
1,Cc1cccc(N2C(=O)N(c3cccc(Cl)c3)C3CS(=O)(=O)CC32)c1C (stereo unspecified),0.16 °C
2,CC(=O)Oc1ccc2nc(-c3ccc(Cl)cc3Cl)oc(=O)c2c1,0.3 °C
3,COc1ccc(C)cc1NC(=O)Nc1ccc(NC(C)=O)cc1,0.57 °C
4,O=C(Nc1cccc(NC(=O)c2ncn[nH]2)c1)c1cccc(Cl)c1,active: 1.07 °C
5,Cc1nc(N)sc1-c1nnc(Nc2ccccc2)s1,active: 2.14 °C
6,Cc1ccnc(NC(=O)c2sc3nc(-c4ccccc4)cn3c2C)c1,0.69 °C
7,O=C1OC(c2cccs2)=N/C1=C/c1cc(Br)ccc1OCc1ccccc1F,0.67 °C
8,CC(=O)c1ccc(NC(=O)c2ccc(N3C(=O)c4cccnc4C3=O)cc2)cc1,0.39 °C
9,COc1ccc(NC(=O)Nc2ccc(N3CCOCC3)cc2)cc1,active: 1.07 °C
10,Cc1ccccc1OCc1nc(-c2cccc(NC(=O)c3ccco3)c2)no1,0.57 °C
11,CC(=O)Oc1cccc2ccc(/C=C/c3cccc(Cl)c3)nc12,0.06 °C
12,CCNC(=O)c1cccc(-c2cccc(-c3ccn[nH]3)c2)c1,0.04 °C
13,CC(=O)Nc1ccc(NC(=O)c2nnn(-c3cccc(Cl)c3)c2N)cc1,0.55 °C
14,COc1cc(/C=C/c2ccc3ccccc3n2)c(Cl)cc1OC(C)=O,0.07 °C
15,CC(=O)Nc1cccc(NC(=O)c2cc3c(s2)CCCC3)c1,inactive: 0 °C
16,Cc1ccc(O)c(NC(=O)CSc2nc3ccccc3[nH]2)c1,0.28 °C
17,CCOC(=O)C(Cc1c[nH]c2ccccc12)NC(=O)c1ccc(C(C)(C)C)cc1 (stereo unspecified),0.01 °C
18,O=C(Nc1cccc(Cl)c1)Nc1nnc(-c2ccco2)s1,0.2 °C
19,CC(C)N(Cc1ccccc1)C(=O)COc1ccc(Cl)cc1Br,0.63 °C
20,COc1ccc(-c2csc(-c3ccc(OC)c(OC)c3)n2)cc1C,0.05 °C
21,Cc1ccccc1NC(=S)NCCC(c1ccccc1)c1ccccc1,0.02 °C
22,NC1=NC(=O)/C(=C/c2ccc(-c3cc([N+](=O)[O-])ccc3O)o2)S1,active: 1.17 °C

row,Structure (SMILES),thermal shift dTm
1,CCCCC1=NN2C(=N)/C(=C/c3ccc(Cl)cc3Cl)C(=O)N=C2S1,0.11 °C
2,Cc1nonc1CC(=O)N1CCc2ccc(NC(=O)Cc3ccccc3F)cc2C1,0.29 °C
3,COc1ccc(/C=C(\NC(=O)c2ccccc2)C(=O)NCCc2c[nH]c3ccccc23)cc1,inactive: -0.13 °C
4,Cc1ccc(C)c(-n2c(CCC(=O)O)ccc2-c2ccc(Br)cc2)c1,0.11 °C
5,O=C(Nc1nccs1)c1ccc(-c2ccc(F)c(Cl)c2)o1,0.15 °C
6,CCC(=O)NC(=S)Nc1ccc(NC(=O)COc2ccccc2)cc1,0.11 °C
7,COc1cc(/C=N/O)cc(Br)c1OCc1cccc(Cl)c1,inactive: -0.03 °C
8,CCCOc1ccc(C(=O)Nc2cccc(NC(C)=O)c2)cc1,0.23 °C
9,CCc1ccc(NC(=O)Nc2cc(F)ccc2F)cc1,inactive: -15.7 °C
10,S=C(Nc1ccccc1)N(Cc1ccccc1)Cc1ccccc1,inactive: -0.13 °C
11,CCCc1cc(NCc2ccccn2)n2ncc(-c3ccccc3)c2n1,0.01 °C
12,C=CCSC1=N/C(=C\c2cccc(OC3CCCC3)c2)C(=O)S1,0.58 °C
13,Cc1ccc(NC(=O)Nc2ccc(S(=O)(=O)Nc3ccccn3)cc2)cc1,active: 2.37 °C
14,O=C(Nc1ccc(S(=O)(=O)N2CCOCC2)cc1)c1cc2ccccc2o1,0.14 °C
15,O=S(=O)(CC(F)(F)F)N1CCc2onc(-c3ccc(F)c(F)c3)c2C1,0.93 °C
16,CC(=O)Nc1ccc(C(=O)Nc2ccccc2)cc1,active: 1.02 °C
17,Cc1cccc(C(=O)NC(Nc2ccc(C)cc2C)C(Cl)(Cl)Cl)c1 (stereo unspecified),0.05 °C
18,CCOc1ccc(-c2nc3ccccc3c(=O)o2)cc1Cl,0.86 °C
